Where a name gives a salt, the structure may show the parent alone.
Tests used:
Solubility in water = type: physicochemical; conditions: Example 13 remark
[1] = tested on: sea wasp (Chiropsalmus quadumanus) stings; test: Jellyfish sting test on inner forearm of human test subjects, sea wasp; type: in vivo
Source text: Two genera of jellyfish were used in examples 2-19 described below: Chiropsalmus quadumanus, a cubomedusa and member of the Scyphozoa, also known as the sea wasp; and another scyphozoan jellyfish, hrysaora quinquecirrha, commonly called the sea nettle. These are the two most common types of stinging jellies that occur with frequency and/or regularity in normal swimming waters on the USA east coast north of Cape Canaveral.
Living healthy specimens were captured locally using trawls and dip-nets. They were maintained in flowing seawater aquariums (ca. 500 liters) for days-weeks; sea nettles maintained for long periods were fed live minnows (mummichugs).
For examples 3-19, with the exception of the commercially available spray products and the meat tenderizer paste solution, all of the other test solutions were in liquid form and were applied using a one milliliter pipetter and sterile tips.
For examples 3-19 below, the following general procedures were followed. Healthy, actively swimming jellyfish were used in all examples, and the same procedure was applied in all cases. The same human test subjects were used in all experiments, in order to have continuity and be able to qualitatively compare treatment effects among experimental dates. […]

chigger bites = test: Chigger bite treatment, one subject; type: in vivo, human; conditions: Example 22; 4% lidocaine formulation applied after removal of the other two products
Source text: The subject for this example had substantial experience with chigger bites, with typical symptoms including intense and prolonged (days to weeks) itching associated with the bites. Subject was provided with a solution of 4% lidocaine and water (carrier) according to the present disclosure. Subject received 6 chigger bites on inner thigh area. Subject applied the formulation to two of the chigger bites, treated two others with Chigger Rid®, a drug store product, and applied clear finger nail polish, a home remedy, to the final two bites. […] After three days, subject removed the other two products and applied the 4% lidocaine formulation of the present disclosure to the remaining four bites.

| Compound | dissolves in water (Solubility in water) | pain/irritation subsiding ([1]; Example 6, 10% compared to 5% lidocaine in 80:20 water:propylene glycol) | redness and irritation of treated sites the next day ([1]; Example 7, 20 h later, lidocaine-treated sites vs absence of lidocaine) | itching of remaining 4 bites treated after three days (chigger bites) |
| --- | --- | --- | --- | --- |
| CCN(CC)CC(=O)Nc1c(C)cccc1C [lidocaine hydrochloride] | does |  |  |  |
| CCN(CC)CC(=O)Nc1c(C)cccc1C [lidocaine] |  | subsided faster | not red or irritated the next day | subsided after application of the formulation of the present disclosure and did not return |
